Some results were stated once for a whole list of compounds, not compound by compound. At least one compound was matched to its structure with a doubt left.
Conditions: as much as tolerable up to 150 grams per day

SMILES	tolerated ingestion per day [g per day]
CC(O)CCO (centres unmarked) [0%, (D)-1,3 butanediol]	< 100
CC(O)CC(=O)O (stereo not drawn) [100%, (D)-β-hydroxybutyric acid]	< 100
